We go through 17 targets from the supplement of paper PMC10849652.

Protein sequences, listed by entry. Tags and fused reporters are not part of them. Lines headed by an entry give the natural chain unless they say otherwise; changes in a name come on top.
UniProt O15554, whole entry, looked up: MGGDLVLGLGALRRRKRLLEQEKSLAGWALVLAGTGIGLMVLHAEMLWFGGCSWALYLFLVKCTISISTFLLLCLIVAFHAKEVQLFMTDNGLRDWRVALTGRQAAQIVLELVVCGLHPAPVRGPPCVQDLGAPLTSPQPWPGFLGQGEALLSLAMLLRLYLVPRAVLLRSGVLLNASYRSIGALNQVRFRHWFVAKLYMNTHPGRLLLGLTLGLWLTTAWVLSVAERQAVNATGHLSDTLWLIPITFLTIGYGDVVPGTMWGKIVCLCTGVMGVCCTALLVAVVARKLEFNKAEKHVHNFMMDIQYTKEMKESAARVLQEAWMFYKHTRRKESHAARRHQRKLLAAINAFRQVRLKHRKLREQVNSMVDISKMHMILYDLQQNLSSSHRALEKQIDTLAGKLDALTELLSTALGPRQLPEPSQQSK
UniProt Q96MP8: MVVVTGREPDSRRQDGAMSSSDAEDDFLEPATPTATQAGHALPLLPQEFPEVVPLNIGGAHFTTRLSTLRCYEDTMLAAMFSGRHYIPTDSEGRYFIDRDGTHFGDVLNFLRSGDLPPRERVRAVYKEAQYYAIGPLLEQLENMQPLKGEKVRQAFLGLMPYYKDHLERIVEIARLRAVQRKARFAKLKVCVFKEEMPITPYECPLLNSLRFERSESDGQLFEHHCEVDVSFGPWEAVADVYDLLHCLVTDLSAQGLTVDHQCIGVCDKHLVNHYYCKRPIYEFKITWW
UniProt O43731: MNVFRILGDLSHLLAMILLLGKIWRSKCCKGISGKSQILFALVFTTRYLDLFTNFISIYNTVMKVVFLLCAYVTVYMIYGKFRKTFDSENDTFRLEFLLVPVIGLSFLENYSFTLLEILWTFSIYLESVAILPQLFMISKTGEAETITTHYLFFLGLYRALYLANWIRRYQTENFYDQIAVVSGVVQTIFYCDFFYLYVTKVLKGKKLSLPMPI
UniProt Q9H079: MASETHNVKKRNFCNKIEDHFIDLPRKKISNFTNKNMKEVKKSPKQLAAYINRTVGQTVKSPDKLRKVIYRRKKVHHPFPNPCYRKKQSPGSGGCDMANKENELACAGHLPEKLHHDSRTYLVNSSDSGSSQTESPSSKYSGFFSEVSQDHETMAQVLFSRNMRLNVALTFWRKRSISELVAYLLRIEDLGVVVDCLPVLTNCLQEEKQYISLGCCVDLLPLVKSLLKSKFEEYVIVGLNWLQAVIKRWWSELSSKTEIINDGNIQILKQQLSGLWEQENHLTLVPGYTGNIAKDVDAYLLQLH
UniProt P05412, whole entry, looked up: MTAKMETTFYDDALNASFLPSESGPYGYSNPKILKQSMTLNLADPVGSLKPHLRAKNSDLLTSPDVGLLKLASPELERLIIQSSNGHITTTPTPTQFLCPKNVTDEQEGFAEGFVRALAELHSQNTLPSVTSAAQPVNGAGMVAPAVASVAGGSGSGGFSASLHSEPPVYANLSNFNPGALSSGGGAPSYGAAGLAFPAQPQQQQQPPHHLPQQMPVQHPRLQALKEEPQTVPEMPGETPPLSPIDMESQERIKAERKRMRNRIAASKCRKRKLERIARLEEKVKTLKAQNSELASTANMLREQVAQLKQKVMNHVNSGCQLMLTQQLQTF
UniProt Q5JSJ4, whole entry, looked up: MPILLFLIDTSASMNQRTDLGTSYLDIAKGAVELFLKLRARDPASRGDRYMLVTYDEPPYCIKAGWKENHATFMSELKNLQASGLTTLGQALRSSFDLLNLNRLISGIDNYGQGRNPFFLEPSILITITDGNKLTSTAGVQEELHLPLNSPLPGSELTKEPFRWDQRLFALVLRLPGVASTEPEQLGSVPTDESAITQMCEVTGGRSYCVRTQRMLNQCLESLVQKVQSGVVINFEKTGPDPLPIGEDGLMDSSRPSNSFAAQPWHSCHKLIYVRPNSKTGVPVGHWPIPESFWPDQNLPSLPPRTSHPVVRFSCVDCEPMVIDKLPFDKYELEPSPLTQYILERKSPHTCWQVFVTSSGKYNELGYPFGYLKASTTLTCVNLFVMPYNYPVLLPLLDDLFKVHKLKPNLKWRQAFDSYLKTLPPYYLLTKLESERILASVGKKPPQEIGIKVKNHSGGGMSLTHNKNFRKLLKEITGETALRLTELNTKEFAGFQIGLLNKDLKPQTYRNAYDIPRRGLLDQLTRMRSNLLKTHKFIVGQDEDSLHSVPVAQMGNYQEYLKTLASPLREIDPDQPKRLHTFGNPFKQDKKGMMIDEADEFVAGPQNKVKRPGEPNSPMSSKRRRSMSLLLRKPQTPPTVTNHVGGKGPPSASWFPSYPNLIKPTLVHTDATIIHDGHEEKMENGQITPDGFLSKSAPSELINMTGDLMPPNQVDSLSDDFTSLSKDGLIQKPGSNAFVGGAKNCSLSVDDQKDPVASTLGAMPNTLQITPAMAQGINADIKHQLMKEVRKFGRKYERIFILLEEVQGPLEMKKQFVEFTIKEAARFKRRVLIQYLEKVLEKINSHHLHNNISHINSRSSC
UniProt Q14573, whole entry, looked up: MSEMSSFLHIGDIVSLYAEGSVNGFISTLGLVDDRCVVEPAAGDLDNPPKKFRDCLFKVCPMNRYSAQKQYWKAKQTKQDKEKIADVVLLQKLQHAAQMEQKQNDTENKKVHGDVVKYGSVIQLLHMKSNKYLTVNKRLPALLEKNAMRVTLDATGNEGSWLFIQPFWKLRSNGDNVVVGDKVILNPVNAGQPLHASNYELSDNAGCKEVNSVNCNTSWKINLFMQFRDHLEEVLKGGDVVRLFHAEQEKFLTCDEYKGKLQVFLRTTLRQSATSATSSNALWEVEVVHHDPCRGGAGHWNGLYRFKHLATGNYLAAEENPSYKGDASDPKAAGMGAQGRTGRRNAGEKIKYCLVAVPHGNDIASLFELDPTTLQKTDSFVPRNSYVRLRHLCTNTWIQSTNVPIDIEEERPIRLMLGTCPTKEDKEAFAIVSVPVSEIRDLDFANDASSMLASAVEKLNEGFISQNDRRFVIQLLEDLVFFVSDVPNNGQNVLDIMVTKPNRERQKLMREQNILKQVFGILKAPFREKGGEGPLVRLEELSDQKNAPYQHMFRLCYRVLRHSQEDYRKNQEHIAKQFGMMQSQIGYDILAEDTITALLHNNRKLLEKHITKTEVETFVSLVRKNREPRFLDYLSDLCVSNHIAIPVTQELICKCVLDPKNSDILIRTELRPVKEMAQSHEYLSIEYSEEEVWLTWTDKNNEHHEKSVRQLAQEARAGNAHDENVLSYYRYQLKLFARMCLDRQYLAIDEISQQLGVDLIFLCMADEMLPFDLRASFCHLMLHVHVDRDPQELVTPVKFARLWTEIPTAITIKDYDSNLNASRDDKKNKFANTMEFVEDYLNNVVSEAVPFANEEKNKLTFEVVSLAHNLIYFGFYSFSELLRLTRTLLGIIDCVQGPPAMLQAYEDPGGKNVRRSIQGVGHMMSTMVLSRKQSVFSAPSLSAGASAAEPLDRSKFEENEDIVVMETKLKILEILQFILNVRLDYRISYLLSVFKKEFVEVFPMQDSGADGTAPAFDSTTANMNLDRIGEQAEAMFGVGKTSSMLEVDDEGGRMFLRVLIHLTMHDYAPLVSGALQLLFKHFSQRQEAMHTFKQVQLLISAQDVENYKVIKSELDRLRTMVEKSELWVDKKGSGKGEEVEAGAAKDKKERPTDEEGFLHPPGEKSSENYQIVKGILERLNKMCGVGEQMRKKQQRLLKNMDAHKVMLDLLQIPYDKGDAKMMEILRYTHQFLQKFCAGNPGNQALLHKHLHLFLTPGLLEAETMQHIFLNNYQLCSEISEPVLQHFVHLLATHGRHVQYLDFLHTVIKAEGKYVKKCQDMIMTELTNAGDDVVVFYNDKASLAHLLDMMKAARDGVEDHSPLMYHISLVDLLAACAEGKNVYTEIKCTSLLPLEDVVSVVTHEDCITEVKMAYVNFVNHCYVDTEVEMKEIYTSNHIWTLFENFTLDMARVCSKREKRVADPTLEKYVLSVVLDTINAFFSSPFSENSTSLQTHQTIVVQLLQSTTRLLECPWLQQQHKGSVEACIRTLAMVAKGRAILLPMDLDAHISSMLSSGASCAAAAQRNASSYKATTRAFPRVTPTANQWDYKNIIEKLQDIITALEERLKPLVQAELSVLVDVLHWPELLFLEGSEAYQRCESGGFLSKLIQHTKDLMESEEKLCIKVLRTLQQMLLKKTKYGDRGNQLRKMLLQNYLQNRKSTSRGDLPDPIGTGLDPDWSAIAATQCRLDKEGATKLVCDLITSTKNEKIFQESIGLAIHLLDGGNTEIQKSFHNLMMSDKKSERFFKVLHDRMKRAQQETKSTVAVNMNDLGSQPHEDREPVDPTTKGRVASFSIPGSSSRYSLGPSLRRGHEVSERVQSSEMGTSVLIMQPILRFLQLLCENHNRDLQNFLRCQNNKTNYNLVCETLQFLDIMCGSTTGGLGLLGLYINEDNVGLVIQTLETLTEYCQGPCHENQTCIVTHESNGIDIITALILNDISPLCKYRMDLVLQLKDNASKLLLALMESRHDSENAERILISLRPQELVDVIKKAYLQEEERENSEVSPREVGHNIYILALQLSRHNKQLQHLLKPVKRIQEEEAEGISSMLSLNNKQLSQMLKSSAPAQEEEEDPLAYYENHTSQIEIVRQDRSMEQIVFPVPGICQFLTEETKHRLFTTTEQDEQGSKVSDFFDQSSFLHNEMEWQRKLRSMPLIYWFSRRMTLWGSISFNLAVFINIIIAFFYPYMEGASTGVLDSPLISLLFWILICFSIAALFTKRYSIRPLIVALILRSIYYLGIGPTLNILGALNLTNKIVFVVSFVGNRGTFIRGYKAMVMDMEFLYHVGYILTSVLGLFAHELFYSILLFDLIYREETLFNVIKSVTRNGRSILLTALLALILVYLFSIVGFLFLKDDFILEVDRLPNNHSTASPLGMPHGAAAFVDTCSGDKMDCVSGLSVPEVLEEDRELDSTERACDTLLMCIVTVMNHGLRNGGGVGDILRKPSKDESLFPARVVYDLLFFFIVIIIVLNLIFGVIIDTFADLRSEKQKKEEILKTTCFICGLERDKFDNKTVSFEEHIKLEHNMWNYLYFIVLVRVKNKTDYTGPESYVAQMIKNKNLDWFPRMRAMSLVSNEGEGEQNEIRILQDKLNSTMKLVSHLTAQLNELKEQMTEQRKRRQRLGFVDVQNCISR
UniProt Q9H9L3: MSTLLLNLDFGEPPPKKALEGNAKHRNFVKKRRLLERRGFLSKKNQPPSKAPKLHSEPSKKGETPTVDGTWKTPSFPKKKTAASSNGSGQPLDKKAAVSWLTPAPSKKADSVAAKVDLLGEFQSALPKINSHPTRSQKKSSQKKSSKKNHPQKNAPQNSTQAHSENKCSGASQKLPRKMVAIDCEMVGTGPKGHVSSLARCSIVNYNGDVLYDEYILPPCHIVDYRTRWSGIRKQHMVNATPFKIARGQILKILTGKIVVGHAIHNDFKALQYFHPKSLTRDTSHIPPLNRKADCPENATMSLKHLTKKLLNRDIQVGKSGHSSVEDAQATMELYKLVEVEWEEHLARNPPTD
UniProt P08514, whole entry, looked up: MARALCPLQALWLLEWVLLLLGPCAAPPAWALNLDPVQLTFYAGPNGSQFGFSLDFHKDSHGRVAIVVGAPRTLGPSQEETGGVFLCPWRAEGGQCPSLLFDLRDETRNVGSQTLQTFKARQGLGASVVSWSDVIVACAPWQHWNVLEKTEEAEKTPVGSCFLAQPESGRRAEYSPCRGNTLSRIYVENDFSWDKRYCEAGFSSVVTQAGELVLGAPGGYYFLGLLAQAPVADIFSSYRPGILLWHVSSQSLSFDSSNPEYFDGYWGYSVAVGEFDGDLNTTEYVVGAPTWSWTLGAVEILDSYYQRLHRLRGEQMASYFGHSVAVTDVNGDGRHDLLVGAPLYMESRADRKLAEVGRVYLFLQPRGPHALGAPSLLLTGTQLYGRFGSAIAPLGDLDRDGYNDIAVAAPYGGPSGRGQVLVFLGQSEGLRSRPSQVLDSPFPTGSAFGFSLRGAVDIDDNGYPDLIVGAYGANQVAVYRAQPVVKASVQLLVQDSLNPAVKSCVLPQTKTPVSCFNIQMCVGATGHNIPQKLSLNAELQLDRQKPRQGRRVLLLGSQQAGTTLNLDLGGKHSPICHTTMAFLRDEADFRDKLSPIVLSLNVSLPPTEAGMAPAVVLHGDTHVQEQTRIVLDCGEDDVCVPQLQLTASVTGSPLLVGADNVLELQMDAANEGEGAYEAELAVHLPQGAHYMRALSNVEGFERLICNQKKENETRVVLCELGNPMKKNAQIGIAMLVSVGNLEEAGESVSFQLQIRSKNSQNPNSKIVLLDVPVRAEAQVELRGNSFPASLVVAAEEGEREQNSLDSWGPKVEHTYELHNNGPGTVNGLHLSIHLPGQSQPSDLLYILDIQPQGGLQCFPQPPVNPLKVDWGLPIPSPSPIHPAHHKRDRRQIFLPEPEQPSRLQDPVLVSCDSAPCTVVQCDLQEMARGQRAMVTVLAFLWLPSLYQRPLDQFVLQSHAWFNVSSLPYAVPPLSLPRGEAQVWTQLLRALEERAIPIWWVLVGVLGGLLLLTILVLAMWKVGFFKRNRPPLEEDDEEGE

The list shows a part of the results.

Compound in this experiment: CC1=CC=C(C=C1)SC2=C3C=C(SC3=CN=C2)C(=O)N
Nature of the experiment: log2 fold change, soluble protein after heating vs DMSO (PISA); higher = thermal stabilisation; K562 lysate, 10 uM; active = over 0.2 and 3.5 SD of the protein, either way, in both replicates (recomputed). The procedure, abridged:
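Thermal stability, expressed as log-two fold change relative to solvent controls, is given from duplicates. Crude K562 extract in PBS pH 7.4 with 1 mM MgCl2, at 1 mg/mL protein, was treated with 10 μM compound for 30 min and heated in aliquots for 3 min across 48°C-58°C. After pooling, adjustment to 0.5% NP-40 at 4°C and centrifugation at 21,000xg for 90 min, supernatant protein was measured by TMTpro 16plex LC-MS/MS with channel sums equalised.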
As for KCNN4 (UniProt O15554), the log2 fold change was inactive: -0.064.

On to KANK2 isoform 2 (UniProt Q63ZY3), for which the log2 fold change is inactive: -0.079.

For the target ITFG2 (UniProt H0YGR0), the log2 fold change was inactive: -0.126.

With KCTD7 (UniProt Q96MP8), the log2 fold change is inactive: -0.123.

For the target IPP (UniProt Q9Y573), the log2 fold change was inactive: -0.044.

On to KDELR3 (UniProt O43731), for which the log2 fold change is inactive: 0.201.

In the case of IST1 isoform 2 (UniProt P53990), the log2 fold change is inactive: 0.094.

KATNBL1 (UniProt Q9H079): the log2 fold change is inactive: -0.025.

On to JUN (UniProt P05412), for which the log2 fold change was inactive: -0.037.

INTS6L (UniProt Q5JSJ4): the log2 fold change was inactive: 0.02.

ITPR3 (UniProt Q14573): the log2 fold change is inactive: -0.06.

For the target KAT2A (UniProt Q92830), the log2 fold change is inactive: 0.152.

For ITPR2 (UniProt Q14571), the log2 fold change is inactive: -0.322.

With ISG20L2 (UniProt Q9H9L3), the log2 fold change is inactive: 0.067.

KANSL1 (UniProt Q7Z3B3): the log2 fold change was inactive: 0.038.

Take IPO5 (UniProt H0Y3V4): the log2 fold change was inactive: 0.073.

Take ITGA2B (UniProt P08514): the log2 fold change is inactive: -0.02.
